Test: general procedure: Fmoc solid-phase peptide synthesis; HCTU/DIPEA
Conditions: cyclisation step, determined by LC-MS

## Ac-SCFGGRK(mal)DRIGAQC(hex)GLGCNSF
  cyclisation yield: >55%
